# The list shows a part of the results. Most entries show no effect beyond the scatter of the controls.
# Chains of the proteins cited; added tags and fusions are not shown. Lines headed by an entry give the natural chain unless they say otherwise; changes in a name come on top.
# UniProt O08914, whole entry: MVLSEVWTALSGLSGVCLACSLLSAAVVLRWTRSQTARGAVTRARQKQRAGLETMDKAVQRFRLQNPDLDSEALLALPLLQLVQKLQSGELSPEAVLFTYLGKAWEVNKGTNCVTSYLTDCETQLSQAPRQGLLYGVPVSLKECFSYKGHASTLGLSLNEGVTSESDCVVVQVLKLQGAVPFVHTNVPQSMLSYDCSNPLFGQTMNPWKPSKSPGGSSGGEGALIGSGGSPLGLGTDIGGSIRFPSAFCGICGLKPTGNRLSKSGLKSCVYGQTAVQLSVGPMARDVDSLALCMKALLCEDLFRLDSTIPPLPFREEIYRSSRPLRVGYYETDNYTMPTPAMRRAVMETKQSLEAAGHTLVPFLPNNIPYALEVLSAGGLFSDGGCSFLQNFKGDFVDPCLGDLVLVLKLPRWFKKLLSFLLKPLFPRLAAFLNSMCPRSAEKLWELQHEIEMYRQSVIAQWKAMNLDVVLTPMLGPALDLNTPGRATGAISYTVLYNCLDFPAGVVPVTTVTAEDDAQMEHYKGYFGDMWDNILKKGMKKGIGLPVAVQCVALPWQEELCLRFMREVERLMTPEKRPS
# UniProt O88343: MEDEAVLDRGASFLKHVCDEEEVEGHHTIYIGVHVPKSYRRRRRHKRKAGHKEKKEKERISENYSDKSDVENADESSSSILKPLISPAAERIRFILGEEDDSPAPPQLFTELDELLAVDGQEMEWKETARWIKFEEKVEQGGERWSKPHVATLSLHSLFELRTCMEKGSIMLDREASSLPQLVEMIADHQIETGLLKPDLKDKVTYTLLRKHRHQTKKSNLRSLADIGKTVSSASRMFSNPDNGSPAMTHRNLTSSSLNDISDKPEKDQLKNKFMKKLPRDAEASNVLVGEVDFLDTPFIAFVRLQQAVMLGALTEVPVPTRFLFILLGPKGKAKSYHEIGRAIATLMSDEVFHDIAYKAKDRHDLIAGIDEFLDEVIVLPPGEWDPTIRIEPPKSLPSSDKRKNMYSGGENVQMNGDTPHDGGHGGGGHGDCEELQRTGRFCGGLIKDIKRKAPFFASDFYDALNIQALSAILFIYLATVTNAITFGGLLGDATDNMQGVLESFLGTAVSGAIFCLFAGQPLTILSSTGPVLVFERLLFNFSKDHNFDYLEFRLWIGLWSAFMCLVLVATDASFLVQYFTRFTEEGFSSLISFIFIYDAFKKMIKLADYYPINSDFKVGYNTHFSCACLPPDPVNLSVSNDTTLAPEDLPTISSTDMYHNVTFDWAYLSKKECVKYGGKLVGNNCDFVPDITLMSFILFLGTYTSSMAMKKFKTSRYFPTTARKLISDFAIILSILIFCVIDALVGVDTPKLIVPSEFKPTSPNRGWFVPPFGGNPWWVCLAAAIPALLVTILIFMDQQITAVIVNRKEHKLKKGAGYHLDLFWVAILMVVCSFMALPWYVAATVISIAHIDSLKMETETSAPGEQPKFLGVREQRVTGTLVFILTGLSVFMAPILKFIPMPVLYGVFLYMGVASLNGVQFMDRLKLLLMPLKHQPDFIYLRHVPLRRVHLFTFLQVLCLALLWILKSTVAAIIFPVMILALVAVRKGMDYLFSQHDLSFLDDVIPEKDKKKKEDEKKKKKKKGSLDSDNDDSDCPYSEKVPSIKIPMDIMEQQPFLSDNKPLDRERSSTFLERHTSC
# UniProt O54916: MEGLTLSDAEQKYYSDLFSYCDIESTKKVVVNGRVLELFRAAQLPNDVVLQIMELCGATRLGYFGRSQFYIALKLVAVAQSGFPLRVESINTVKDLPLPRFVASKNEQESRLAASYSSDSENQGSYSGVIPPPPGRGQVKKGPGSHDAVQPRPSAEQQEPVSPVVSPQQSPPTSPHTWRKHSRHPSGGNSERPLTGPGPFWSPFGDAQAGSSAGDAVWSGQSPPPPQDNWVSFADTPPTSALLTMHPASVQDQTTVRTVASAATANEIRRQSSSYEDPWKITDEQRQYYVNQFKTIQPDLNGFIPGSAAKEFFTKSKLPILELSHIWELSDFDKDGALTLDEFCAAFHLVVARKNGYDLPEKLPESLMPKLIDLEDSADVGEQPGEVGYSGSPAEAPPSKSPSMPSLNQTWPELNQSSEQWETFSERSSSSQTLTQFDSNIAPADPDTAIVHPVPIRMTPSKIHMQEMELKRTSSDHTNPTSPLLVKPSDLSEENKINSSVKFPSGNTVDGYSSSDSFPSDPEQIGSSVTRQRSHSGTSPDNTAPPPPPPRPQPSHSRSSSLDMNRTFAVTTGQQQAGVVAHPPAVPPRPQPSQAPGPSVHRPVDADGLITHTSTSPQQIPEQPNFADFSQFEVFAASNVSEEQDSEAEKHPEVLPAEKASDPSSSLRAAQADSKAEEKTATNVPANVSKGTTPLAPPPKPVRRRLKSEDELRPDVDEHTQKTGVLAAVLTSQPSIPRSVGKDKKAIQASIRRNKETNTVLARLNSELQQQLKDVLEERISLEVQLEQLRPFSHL
# UniProt O88643, whole entry: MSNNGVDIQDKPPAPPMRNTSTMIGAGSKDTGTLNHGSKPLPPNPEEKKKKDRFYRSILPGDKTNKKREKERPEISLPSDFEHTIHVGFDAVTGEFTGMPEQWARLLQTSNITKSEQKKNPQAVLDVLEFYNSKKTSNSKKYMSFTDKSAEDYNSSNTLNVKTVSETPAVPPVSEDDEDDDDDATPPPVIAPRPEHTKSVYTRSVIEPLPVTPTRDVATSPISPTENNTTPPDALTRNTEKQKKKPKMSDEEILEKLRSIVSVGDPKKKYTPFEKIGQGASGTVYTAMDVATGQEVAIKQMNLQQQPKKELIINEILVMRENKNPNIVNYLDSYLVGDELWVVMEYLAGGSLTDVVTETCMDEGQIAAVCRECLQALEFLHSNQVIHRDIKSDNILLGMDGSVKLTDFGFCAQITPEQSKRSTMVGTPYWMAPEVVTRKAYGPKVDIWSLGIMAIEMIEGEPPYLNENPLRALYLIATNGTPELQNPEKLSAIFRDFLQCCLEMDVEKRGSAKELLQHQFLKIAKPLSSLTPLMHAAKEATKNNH
# UniProt O08692: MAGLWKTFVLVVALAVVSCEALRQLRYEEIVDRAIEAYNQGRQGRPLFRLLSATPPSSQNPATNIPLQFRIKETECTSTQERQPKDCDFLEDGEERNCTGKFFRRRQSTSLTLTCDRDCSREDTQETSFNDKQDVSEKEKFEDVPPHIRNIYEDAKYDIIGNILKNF
# UniProt O35403: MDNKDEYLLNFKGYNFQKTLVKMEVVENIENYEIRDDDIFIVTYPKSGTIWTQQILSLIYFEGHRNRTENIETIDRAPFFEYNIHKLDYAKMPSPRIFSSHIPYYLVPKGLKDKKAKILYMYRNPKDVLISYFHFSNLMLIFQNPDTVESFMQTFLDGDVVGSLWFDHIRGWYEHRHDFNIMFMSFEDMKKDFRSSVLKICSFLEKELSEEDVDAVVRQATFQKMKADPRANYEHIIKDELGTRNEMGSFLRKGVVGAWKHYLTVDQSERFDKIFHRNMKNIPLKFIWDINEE
# UniProt O88783: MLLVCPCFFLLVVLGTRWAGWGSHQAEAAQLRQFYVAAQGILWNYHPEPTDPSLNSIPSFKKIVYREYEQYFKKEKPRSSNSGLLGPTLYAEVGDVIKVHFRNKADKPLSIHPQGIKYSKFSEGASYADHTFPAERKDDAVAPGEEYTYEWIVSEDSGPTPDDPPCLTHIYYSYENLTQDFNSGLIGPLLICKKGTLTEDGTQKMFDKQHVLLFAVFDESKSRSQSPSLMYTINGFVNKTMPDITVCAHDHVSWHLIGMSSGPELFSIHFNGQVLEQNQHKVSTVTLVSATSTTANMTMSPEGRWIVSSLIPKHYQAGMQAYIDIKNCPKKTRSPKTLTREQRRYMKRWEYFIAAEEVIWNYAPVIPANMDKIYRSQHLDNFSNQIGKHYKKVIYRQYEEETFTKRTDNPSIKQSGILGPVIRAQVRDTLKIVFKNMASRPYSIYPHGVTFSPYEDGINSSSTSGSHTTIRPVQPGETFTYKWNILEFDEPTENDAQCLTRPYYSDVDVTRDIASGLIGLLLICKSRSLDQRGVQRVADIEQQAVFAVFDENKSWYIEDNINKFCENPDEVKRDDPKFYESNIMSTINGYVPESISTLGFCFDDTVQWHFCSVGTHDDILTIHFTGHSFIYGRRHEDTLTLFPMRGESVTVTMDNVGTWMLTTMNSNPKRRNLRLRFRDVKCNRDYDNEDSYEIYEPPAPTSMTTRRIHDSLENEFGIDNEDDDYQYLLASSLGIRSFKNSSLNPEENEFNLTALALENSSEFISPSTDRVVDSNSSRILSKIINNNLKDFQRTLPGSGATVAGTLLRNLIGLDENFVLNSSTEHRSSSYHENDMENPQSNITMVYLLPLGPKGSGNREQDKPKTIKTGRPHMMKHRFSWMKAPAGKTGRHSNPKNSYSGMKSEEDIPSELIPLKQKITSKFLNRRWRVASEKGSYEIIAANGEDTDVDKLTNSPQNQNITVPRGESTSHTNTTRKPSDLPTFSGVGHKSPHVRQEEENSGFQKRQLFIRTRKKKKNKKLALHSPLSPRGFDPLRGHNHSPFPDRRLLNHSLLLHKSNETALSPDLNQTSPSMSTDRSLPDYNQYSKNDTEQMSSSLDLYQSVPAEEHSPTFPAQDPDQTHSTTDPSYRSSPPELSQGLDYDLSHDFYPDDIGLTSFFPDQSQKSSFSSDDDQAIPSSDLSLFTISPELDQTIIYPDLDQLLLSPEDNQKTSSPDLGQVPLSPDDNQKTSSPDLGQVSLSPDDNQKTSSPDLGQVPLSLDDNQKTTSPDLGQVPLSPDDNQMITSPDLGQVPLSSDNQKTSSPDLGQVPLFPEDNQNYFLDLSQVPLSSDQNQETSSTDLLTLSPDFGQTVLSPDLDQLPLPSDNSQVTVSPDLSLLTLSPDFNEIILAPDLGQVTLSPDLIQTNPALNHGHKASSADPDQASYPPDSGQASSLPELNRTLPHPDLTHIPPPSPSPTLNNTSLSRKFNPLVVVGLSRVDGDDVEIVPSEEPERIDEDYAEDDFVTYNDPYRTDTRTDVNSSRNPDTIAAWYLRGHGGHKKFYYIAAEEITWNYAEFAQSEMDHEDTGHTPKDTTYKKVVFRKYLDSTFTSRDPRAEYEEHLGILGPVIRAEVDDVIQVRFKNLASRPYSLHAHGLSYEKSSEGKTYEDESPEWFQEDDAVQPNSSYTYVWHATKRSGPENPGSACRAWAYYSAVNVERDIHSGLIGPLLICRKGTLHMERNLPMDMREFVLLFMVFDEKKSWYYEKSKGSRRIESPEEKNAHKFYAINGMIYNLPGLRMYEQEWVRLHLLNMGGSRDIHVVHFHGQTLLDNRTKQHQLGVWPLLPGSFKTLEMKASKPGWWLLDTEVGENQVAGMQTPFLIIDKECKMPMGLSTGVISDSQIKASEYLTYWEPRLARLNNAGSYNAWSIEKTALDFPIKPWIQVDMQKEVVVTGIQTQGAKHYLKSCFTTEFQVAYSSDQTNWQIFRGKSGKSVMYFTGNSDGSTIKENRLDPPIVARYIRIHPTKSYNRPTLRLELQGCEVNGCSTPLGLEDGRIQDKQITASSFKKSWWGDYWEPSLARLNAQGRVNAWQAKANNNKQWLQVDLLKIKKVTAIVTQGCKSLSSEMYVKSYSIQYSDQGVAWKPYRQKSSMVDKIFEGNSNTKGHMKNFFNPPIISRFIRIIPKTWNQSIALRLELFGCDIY
# UniProt O70475: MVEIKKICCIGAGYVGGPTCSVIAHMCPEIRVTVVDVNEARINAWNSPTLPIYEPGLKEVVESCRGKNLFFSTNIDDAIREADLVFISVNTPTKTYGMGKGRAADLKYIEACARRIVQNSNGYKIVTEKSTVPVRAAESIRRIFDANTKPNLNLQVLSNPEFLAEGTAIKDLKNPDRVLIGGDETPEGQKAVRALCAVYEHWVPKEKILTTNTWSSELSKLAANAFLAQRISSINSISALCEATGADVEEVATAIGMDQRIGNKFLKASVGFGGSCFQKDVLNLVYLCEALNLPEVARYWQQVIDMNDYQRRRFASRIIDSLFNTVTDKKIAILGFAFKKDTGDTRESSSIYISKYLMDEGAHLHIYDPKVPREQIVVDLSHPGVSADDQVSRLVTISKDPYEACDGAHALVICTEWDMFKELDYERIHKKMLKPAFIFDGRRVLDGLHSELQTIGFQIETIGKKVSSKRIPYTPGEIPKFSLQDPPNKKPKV
# UniProt O54901: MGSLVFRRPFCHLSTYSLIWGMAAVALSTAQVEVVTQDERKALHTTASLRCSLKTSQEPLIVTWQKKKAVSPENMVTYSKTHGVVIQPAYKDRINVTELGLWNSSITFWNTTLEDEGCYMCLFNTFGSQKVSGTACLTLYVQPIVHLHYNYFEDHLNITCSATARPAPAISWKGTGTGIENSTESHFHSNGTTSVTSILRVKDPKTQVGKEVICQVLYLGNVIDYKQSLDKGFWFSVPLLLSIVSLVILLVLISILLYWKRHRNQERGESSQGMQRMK
# Compound: CN[C@@H]1C[C@H]2O[C@@](C)([C@@H]1OC)n1c3ccccc3c3c4c(c5c6ccccc6n2c5c31)C(=O)NC4 [staurosporine]
# Experiment: log2 fold change of pooled soluble protein (PISA), ligand vs vehicle (log2 ratio); higher = more thermally stabilized
# Conditions: ligand concentration: 20 uM; assay format: PISA pool 52.9/55.5/58.6 C
row,Target,log2 fold change of pooled soluble protein
1,UniProt O88587,0.0895
2,UniProt O09012,-0.33
3,UniProt O88822,-0.0981
4,UniProt O08734,-0.0127
5,UniProt O55176,-0.122
6,UniProt O89110,-0.0794
7,UniProt O88792,-0.0566
8,UniProt O08966,-0.0406
9,UniProt O35459,-0.148
10,UniProt O08914,-0.0516
11,UniProt O55142,-0.213
12,UniProt O55023,-0.0482
13,UniProt O88343,0.269
14,UniProt O54916,0.0255
15,UniProt O70325,-0.0521
16,UniProt O88712,0.0264
17,UniProt O88643,-0.283
18,UniProt O08917,-0.121

# Given with tabs: entries from further up.
row	Target	log2 fold change of pooled soluble protein
1	UniProt O88587	0.0895
8	UniProt O08966	-0.0406

# The results go on.

row,Target,log2 fold change of pooled soluble protein
1,UniProt O55222,0.254
2,UniProt O88551,0.0434
3,UniProt O70252,0.178
4,UniProt O08692,0.155
5,UniProt O54754,-0.056
6,UniProt O35945,-0.00312
7,UniProt O09159,-0.112
8,UniProt O89090,-0.239
9,UniProt O55060,0.104
10,UniProt O08585,0.0423
11,UniProt O35551,0.062
12,UniProt O35403,0.017
13,UniProt O88783,-0.171
14,UniProt O70475,-0.0451
15,UniProt O54901,0.3
16,UniProt P01837,-0.41
17,UniProt P01867,-0.0224
18,UniProt G3X9Z4,-0.0716
